# Experimental data as given in the supplement of paper PMC6411743.
# ± gives the standard deviation of the averaged measurements. Only a part is listed here, and it is no random draw.
# Key:
# Test in all cases: NP40-soluble protein abundance relative to vehicle (solubility fold change) (ratio); higher = more soluble protein in presence of AMP-PNP
# [1] = biological target: T1, UniProt Q96J84 and related entries
# T1 sequence (whole entry): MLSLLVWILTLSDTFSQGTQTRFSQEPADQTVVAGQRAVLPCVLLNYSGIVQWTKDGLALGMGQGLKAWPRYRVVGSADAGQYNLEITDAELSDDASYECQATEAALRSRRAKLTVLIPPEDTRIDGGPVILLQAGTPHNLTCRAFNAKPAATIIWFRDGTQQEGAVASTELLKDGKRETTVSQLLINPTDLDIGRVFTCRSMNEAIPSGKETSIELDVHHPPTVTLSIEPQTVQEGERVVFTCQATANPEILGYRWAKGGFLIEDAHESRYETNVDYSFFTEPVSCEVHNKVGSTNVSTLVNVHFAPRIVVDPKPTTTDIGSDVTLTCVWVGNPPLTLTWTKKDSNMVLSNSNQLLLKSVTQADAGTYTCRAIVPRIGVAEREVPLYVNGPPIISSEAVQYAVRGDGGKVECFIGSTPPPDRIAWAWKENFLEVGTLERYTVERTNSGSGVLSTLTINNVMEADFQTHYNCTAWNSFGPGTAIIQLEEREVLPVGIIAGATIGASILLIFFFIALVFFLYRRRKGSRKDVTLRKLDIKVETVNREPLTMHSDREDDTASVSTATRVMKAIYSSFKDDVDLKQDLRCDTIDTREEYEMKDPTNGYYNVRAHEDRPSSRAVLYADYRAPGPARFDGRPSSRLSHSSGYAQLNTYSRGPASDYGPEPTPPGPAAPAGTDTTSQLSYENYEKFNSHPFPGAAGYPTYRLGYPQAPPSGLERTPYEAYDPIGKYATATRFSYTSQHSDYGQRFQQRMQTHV
# Summary of the method: (§1)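 Each value is a fold change relative to the detergent-processed vehicle, calculated per replicate from vsn-normalised intensities. Jurkat crude lysate received eight concentrations (0.1 to 10 mM) for 10 min at room temperature and 3 min at 37 °C, then was solubilised in 0.8% NP40 with benzonase (60 min, 4 °C). The ultracentrifuged supernatant was TMT-labelled and run by LC-MS/MS in three independent experiments.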
# [2] = biological target: T2, UniProt Q96JY6 and related entries
# T2 sequence (whole entry): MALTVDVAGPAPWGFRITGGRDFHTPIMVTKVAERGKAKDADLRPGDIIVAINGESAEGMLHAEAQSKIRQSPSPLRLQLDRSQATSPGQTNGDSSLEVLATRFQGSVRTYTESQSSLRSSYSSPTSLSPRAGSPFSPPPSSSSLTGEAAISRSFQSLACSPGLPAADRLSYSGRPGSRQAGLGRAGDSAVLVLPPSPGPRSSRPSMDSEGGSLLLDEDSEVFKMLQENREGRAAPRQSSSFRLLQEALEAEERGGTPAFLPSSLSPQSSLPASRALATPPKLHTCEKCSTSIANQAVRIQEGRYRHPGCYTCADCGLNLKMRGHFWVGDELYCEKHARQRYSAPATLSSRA
# Summary of the method: as §1
# UniProt Q96L50 = biological target: T3, UniProt Q96L50
# T3 sequence (whole entry): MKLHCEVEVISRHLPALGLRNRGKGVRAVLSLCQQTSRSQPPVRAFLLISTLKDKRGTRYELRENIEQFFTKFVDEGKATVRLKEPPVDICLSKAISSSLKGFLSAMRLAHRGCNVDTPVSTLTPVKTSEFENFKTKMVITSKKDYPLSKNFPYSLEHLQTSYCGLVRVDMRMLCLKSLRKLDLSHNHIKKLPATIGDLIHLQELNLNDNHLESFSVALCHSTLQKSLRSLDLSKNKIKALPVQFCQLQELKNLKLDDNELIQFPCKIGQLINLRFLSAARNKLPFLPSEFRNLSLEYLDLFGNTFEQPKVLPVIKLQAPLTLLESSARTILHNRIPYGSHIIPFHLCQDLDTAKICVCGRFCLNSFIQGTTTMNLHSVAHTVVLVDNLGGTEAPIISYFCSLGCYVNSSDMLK
# Summary of the method: as §1
# [3] = biological target: T4, UniProt Q96QD9 and related entries
# T4 sequence (whole entry): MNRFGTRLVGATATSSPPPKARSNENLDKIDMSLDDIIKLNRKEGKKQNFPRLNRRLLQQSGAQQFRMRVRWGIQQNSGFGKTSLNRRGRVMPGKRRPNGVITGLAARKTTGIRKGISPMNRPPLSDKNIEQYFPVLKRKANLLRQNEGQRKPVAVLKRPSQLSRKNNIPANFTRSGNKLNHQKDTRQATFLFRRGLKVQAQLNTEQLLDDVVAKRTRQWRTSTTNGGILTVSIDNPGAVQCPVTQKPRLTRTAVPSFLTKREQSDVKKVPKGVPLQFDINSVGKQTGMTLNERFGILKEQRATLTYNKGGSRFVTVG
# Summary of the method: as §1
# [4] = biological target: T5, UniProt Q96QG7 and related entries
# T5 sequence (whole entry): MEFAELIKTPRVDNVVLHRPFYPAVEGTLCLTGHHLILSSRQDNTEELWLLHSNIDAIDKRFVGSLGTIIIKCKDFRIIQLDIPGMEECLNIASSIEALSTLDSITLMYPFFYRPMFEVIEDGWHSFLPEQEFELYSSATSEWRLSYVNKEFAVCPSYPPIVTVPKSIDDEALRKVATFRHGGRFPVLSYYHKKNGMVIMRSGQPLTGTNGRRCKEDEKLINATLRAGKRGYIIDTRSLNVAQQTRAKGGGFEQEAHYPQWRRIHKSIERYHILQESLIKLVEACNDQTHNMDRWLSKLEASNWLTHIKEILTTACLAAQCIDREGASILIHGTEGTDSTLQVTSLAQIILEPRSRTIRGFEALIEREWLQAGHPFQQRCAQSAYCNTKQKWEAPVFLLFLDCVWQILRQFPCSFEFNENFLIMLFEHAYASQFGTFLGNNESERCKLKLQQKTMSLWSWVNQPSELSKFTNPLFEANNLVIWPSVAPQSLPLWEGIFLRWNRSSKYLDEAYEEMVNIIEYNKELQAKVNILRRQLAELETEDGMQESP
# Summary of the method: as §1
smiles,measurement,setting,value
Nc1ncnc2c1ncn2[C@@H]1O[C@H](COP(=O)(O)OP(=O)(O)NP(=O)(O)O)[C@@H](O)[C@H]1O [adenylyl imidodiphosphate],NP40-soluble protein abundance,[1]; concentration: 1mM,1.02 ± 0.045
same,NP40-soluble protein abundance,[1]; concentration: 2mM,1.01 ± 0.04
same,NP40-soluble protein abundance,[1]; concentration: 4mM,1.01 ± 0.03
same,NP40-soluble protein abundance,[1]; concentration: 6mM,1.03 ± 0.046
same,NP40-soluble protein abundance,[1]; concentration: 8mM,1.02 ± 0.026
same,NP40-soluble protein abundance,[1]; concentration: 10mM,1.01 ± 0.026
same,NP40-soluble protein abundance,[2]; concentration: 1mM,1.01 ± 0.021
same,NP40-soluble protein abundance,[2]; concentration: 2mM,1.06 ± 0.031
same,NP40-soluble protein abundance,[2]; concentration: 4mM,1.04 ± 0.0067
same,NP40-soluble protein abundance,[2]; concentration: 6mM,1 ± 0.013
same,NP40-soluble protein abundance,[2]; concentration: 8mM,0.994 ± 0.023
same,NP40-soluble protein abundance,[2]; concentration: 10mM,0.994 ± 0.028
same,NP40-soluble protein abundance,UniProt Q96L50; concentration: 1mM,0.975 ± 0.042
same,NP40-soluble protein abundance,UniProt Q96L50; concentration: 2mM,0.926 ± 0.017
same,NP40-soluble protein abundance,UniProt Q96L50; concentration: 4mM,0.97 ± 0.042
same,NP40-soluble protein abundance,UniProt Q96L50; concentration: 6mM,1.02 ± 0.034
same,NP40-soluble protein abundance,UniProt Q96L50; concentration: 8mM,0.993 ± 0.06
same,NP40-soluble protein abundance,UniProt Q96L50; concentration: 10mM,0.981 ± 0.049
same,NP40-soluble protein abundance,[3]; concentration: 1mM,0.9791 ± 0.0066
same,NP40-soluble protein abundance,[3]; concentration: 2mM,1.03 ± 0.0042
same,NP40-soluble protein abundance,[3]; concentration: 4mM,1.05 ± 0.047
same,NP40-soluble protein abundance,[3]; concentration: 6mM,1.07 ± 0.1
same,NP40-soluble protein abundance,[3]; concentration: 8mM,1.08 ± 0.075
same,NP40-soluble protein abundance,[3]; concentration: 10mM,1.12 ± 0.048
same,NP40-soluble protein abundance,[4]; concentration: 1mM,0.955 ± 0.01
same,NP40-soluble protein abundance,[4]; concentration: 2mM,0.92 ± 0.029
same,NP40-soluble protein abundance,[4]; concentration: 4mM,0.929 ± 0.0085
same,NP40-soluble protein abundance,[4]; concentration: 6mM,0.94 ± 0.012
same,NP40-soluble protein abundance,[4]; concentration: 8mM,0.957 ± 0.027
same,NP40-soluble protein abundance,[4]; concentration: 10mM,0.9176 ± 0.0091

# Not a retest: an excerpt of the list.
smiles,measurement,setting,value
Nc1ncnc2c1ncn2[C@@H]1O[C@H](COP(=O)(O)OP(=O)(O)NP(=O)(O)O)[C@@H](O)[C@H]1O [adenylyl imidodiphosphate],NP40-soluble protein abundance,[1]; concentration: 6mM,1.03 ± 0.046
same,NP40-soluble protein abundance,[1]; concentration: 8mM,1.02 ± 0.026
